Values of other authors, collected in patent US20160095850A1, “METHODS AND COMPOSITIONS FOR TREATMENT OF HIV INFECTION” (COOPER HUMAN SYSTEMS LLC, priority 2013, published 2016).
pEC50: −log10 of the molar value.

System: latent HIV
Conditions: in vitro T-cell model of HIV latency; read-out: EC50 of HIV induction

For `O=C(CCCCCCC(=O)Nc1ccccc1)NO` [Vorinostat, suberoylanilide hydroxamic acid], the pEC50 is listed as 5.40.
